Results are given in words; binding and its absence hold for the method and conditions named. In cells and extracts the contact can be indirect. Some binding calls cover weakened binding; strength is not graded here. For some of these results: Sequences can lack the tags named with a protein.
Assays:
[1] = biological target: aryl hydrocarbon receptor (AHR), endogenous in HeLa cells (human (endogenous in HeLa)) (UniProt P35869); experiment: co-IP; IP assays that compare SPHK2 and SPHK1 with AHR (Figure S3A,B); cells and precipitating antibody not told in the text shown
[2] = biological target: aryl hydrocarbon receptor (AHR), endogenous in HeLa cells (human (endogenous in HeLa)) (UniProt P35869); experiment: co-IP; endogenous proteins; HeLa cytoplasmic and nuclear extracts, cells with or without TCDF (0.1 uM, 30 min) or ICZ; antibody to AHR, SPHK2 or ARNT on Protein G magnetic beads, 600-800 ug protein, 90 min at 4 C, washed with TBS; western blot
[3] = biological target: aryl hydrocarbon receptor nuclear translocator (ARNT), endogenous in HeLa cells (human (endogenous in HeLa)) (UniProt P27540); experiment: as above
[4] = biological target: hAHR-FLAG (human AHR from pcDNA3-hAHR-FLAG) (human) (UniProt P35869); experiment: co-IP; COS-1 cells co-transfected with hAHR-FLAG and hSPHK2-HA WT or mutant, 48-72 h, TCDF 30 min, cytoplasmic/nuclear extract fractionation; equal protein on Anti-FLAG M2 magnetic beads 2 h at 4 C; western blot

Protein sequences, listed by entry. Tags and fused reporters are not part of them. Residues count along the entry.
UniProt P35869, residues 11-848: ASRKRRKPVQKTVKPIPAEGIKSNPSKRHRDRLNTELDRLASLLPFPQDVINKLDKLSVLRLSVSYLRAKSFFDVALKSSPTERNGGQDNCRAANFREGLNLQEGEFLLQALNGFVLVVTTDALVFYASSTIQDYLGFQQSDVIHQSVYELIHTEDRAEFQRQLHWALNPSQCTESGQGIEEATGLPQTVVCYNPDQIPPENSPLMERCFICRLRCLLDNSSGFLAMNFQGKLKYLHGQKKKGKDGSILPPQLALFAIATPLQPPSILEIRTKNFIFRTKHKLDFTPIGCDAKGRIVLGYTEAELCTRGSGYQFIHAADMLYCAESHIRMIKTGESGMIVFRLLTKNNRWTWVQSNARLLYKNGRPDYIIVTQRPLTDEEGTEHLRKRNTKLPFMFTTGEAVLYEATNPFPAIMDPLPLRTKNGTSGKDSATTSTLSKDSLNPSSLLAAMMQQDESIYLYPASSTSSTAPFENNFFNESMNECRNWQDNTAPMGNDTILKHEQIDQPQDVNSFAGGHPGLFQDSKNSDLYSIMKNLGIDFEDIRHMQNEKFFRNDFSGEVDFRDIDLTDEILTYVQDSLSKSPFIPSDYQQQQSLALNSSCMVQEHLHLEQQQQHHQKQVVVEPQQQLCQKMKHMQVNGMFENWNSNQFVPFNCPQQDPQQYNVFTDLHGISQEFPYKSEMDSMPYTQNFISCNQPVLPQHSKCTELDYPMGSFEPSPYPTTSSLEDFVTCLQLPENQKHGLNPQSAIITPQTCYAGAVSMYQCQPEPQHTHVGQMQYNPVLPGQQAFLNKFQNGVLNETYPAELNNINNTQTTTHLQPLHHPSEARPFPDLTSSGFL
UniProt P27540: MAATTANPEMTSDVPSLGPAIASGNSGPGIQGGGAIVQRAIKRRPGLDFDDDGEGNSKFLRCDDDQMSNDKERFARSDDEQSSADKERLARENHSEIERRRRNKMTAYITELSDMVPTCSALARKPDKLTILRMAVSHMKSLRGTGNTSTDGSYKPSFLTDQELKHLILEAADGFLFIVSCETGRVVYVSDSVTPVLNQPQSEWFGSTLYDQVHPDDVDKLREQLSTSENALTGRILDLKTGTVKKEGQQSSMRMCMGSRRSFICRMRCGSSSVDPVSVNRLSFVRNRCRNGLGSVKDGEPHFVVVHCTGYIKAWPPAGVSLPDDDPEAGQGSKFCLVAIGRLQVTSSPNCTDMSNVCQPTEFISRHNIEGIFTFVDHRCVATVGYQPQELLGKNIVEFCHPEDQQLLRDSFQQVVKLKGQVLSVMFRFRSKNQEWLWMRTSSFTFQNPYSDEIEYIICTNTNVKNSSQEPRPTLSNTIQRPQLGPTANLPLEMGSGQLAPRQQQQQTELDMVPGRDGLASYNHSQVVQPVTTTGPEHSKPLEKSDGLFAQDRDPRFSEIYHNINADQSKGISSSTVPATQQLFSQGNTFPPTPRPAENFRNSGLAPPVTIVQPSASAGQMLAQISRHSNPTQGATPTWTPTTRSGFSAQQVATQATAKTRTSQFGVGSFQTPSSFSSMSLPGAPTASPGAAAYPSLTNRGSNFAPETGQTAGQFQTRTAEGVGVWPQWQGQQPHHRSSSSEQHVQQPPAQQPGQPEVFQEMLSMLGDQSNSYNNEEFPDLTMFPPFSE

| Binder | binding [4] | also measured |
| --- | --- | --- |
| sphingosine kinase 2 (SPHK2), endogenous in HeLa cells (enzyme, UniProt Q9NRA0 1-654) MNGHLEAEEQQDQRPDQELTGSWGHGPRSTLVRAKAMAPPPPPLAASTPLLHGEFGSYPARGPRFALTLTSQALHIQRLRPKPEARPRGGLVPLAEVSGCCTLRSRSPSDSAAYFCIYTYPRGRRGARRRATRTFRADGAATYEENRAEAQRWATALTCLLRGLPLPGDGEITPDLLPRPPRLLLLVNPFGGRGLAWQWCKNHVLPMISEAGLSFNLIQTERQNHARELVQGLSLSEWDGIVTVSGDGLLHEVLNGLLDRPDWEEAVKMPVGILPCGSGNALAGAVNQHGGFEPALGLDLLLNCSLLLCRGGGHPLDLLSVTLASGSRCFSFLSVAWGFVSDVDIQSERFRALGSARFTLGTVLGLATLHTYRGRLSYLPATVEPASPTPAHSLPRAKSELTLTPDPAPPMAHSPLHRSVSDLPLPLPQPALASPGSPEPLPILSLNGGGPELAGDWGGAGDAPLSPDPLLSSPPGSPKAALHSPVSEGAPVIPPSSGLPLPTPDARVGASTCGPPDHLLPPLGTPLPPDWVTLEGDFVLMLAISPSHLGADLVAAPHARFDDGLVHLCWVRSGISRAALLRLFLAMERGSHFSLGCPQLGYAAARAFRLEPLTPRGVLTVDGEQVEYGPLQAQMHPGIGTLLTGPPGCPGREP |  | binding [1]: binds; binding [2]: binds; binding [3]: binds |
| hSPHK2-HA WT (HA tagged human SPHK2) (enzyme, UniProt Q9NRA0 1-654) MNGHLEAEEQQDQRPDQELTGSWGHGPRSTLVRAKAMAPPPPPLAASTPLLHGEFGSYPARGPRFALTLTSQALHIQRLRPKPEARPRGGLVPLAEVSGCCTLRSRSPSDSAAYFCIYTYPRGRRGARRRATRTFRADGAATYEENRAEAQRWATALTCLLRGLPLPGDGEITPDLLPRPPRLLLLVNPFGGRGLAWQWCKNHVLPMISEAGLSFNLIQTERQNHARELVQGLSLSEWDGIVTVSGDGLLHEVLNGLLDRPDWEEAVKMPVGILPCGSGNALAGAVNQHGGFEPALGLDLLLNCSLLLCRGGGHPLDLLSVTLASGSRCFSFLSVAWGFVSDVDIQSERFRALGSARFTLGTVLGLATLHTYRGRLSYLPATVEPASPTPAHSLPRAKSELTLTPDPAPPMAHSPLHRSVSDLPLPLPQPALASPGSPEPLPILSLNGGGPELAGDWGGAGDAPLSPDPLLSSPPGSPKAALHSPVSEGAPVIPPSSGLPLPTPDARVGASTCGPPDHLLPPLGTPLPPDWVTLEGDFVLMLAISPSHLGADLVAAPHARFDDGLVHLCWVRSGISRAALLRLFLAMERGSHFSLGCPQLGYAAARAFRLEPLTPRGVLTVDGEQVEYGPLQAQMHPGIGTLLTGPPGCPGREP | binds |  |
| hSPHK2-HA L157A/L254V/L298G (triple LXXLL mutation) (enzyme, UniProt Q9NRA0 1-654) MNGHLEAEEQQDQRPDQELTGSWGHGPRSTLVRAKAMAPPPPPLAASTPLLHGEFGSYPARGPRFALTLTSQALHIQRLRPKPEARPRGGLVPLAEVSGCCTLRSRSPSDSAAYFCIYTYPRGRRGARRRATRTFRADGAATYEENRAEAQRWATAATCLLRGLPLPGDGEITPDLLPRPPRLLLLVNPFGGRGLAWQWCKNHVLPMISEAGLSFNLIQTERQNHARELVQGLSLSEWDGIVTVSGDGLLHEVVNGLLDRPDWEEAVKMPVGILPCGSGNALAGAVNQHGGFEPALGGDLLLNCSLLLCRGGGHPLDLLSVTLASGSRCFSFLSVAWGFVSDVDIQSERFRALGSARFTLGTVLGLATLHTYRGRLSYLPATVEPASPTPAHSLPRAKSELTLTPDPAPPMAHSPLHRSVSDLPLPLPQPALASPGSPEPLPILSLNGGGPELAGDWGGAGDAPLSPDPLLSSPPGSPKAALHSPVSEGAPVIPPSSGLPLPTPDARVGASTCGPPDHLLPPLGTPLPPDWVTLEGDFVLMLAISPSHLGADLVAAPHARFDDGLVHLCWVRSGISRAALLRLFLAMERGSHFSLGCPQLGYAAARAFRLEPLTPRGVLTVDGEQVEYGPLQAQMHPGIGTLLTGPPGCPGREP | binds |  |
| hSPHK2-HA L298G (enzyme, UniProt Q9NRA0 1-654) MNGHLEAEEQQDQRPDQELTGSWGHGPRSTLVRAKAMAPPPPPLAASTPLLHGEFGSYPARGPRFALTLTSQALHIQRLRPKPEARPRGGLVPLAEVSGCCTLRSRSPSDSAAYFCIYTYPRGRRGARRRATRTFRADGAATYEENRAEAQRWATALTCLLRGLPLPGDGEITPDLLPRPPRLLLLVNPFGGRGLAWQWCKNHVLPMISEAGLSFNLIQTERQNHARELVQGLSLSEWDGIVTVSGDGLLHEVLNGLLDRPDWEEAVKMPVGILPCGSGNALAGAVNQHGGFEPALGGDLLLNCSLLLCRGGGHPLDLLSVTLASGSRCFSFLSVAWGFVSDVDIQSERFRALGSARFTLGTVLGLATLHTYRGRLSYLPATVEPASPTPAHSLPRAKSELTLTPDPAPPMAHSPLHRSVSDLPLPLPQPALASPGSPEPLPILSLNGGGPELAGDWGGAGDAPLSPDPLLSSPPGSPKAALHSPVSEGAPVIPPSSGLPLPTPDARVGASTCGPPDHLLPPLGTPLPPDWVTLEGDFVLMLAISPSHLGADLVAAPHARFDDGLVHLCWVRSGISRAALLRLFLAMERGSHFSLGCPQLGYAAARAFRLEPLTPRGVLTVDGEQVEYGPLQAQMHPGIGTLLTGPPGCPGREP | binds |  |

Now from value to binder, other results behind:

| binding [4] | Binder | also measured |
| --- | --- | --- |
| binds | hSPHK2-HA L157A (enzyme, UniProt Q9NRA0 1-654) MNGHLEAEEQQDQRPDQELTGSWGHGPRSTLVRAKAMAPPPPPLAASTPLLHGEFGSYPARGPRFALTLTSQALHIQRLRPKPEARPRGGLVPLAEVSGCCTLRSRSPSDSAAYFCIYTYPRGRRGARRRATRTFRADGAATYEENRAEAQRWATAATCLLRGLPLPGDGEITPDLLPRPPRLLLLVNPFGGRGLAWQWCKNHVLPMISEAGLSFNLIQTERQNHARELVQGLSLSEWDGIVTVSGDGLLHEVLNGLLDRPDWEEAVKMPVGILPCGSGNALAGAVNQHGGFEPALGLDLLLNCSLLLCRGGGHPLDLLSVTLASGSRCFSFLSVAWGFVSDVDIQSERFRALGSARFTLGTVLGLATLHTYRGRLSYLPATVEPASPTPAHSLPRAKSELTLTPDPAPPMAHSPLHRSVSDLPLPLPQPALASPGSPEPLPILSLNGGGPELAGDWGGAGDAPLSPDPLLSSPPGSPKAALHSPVSEGAPVIPPSSGLPLPTPDARVGASTCGPPDHLLPPLGTPLPPDWVTLEGDFVLMLAISPSHLGADLVAAPHARFDDGLVHLCWVRSGISRAALLRLFLAMERGSHFSLGCPQLGYAAARAFRLEPLTPRGVLTVDGEQVEYGPLQAQMHPGIGTLLTGPPGCPGREP |  |
| binds | hSPHK2-HA L298A (enzyme, UniProt Q9NRA0 1-654) MNGHLEAEEQQDQRPDQELTGSWGHGPRSTLVRAKAMAPPPPPLAASTPLLHGEFGSYPARGPRFALTLTSQALHIQRLRPKPEARPRGGLVPLAEVSGCCTLRSRSPSDSAAYFCIYTYPRGRRGARRRATRTFRADGAATYEENRAEAQRWATALTCLLRGLPLPGDGEITPDLLPRPPRLLLLVNPFGGRGLAWQWCKNHVLPMISEAGLSFNLIQTERQNHARELVQGLSLSEWDGIVTVSGDGLLHEVLNGLLDRPDWEEAVKMPVGILPCGSGNALAGAVNQHGGFEPALGADLLLNCSLLLCRGGGHPLDLLSVTLASGSRCFSFLSVAWGFVSDVDIQSERFRALGSARFTLGTVLGLATLHTYRGRLSYLPATVEPASPTPAHSLPRAKSELTLTPDPAPPMAHSPLHRSVSDLPLPLPQPALASPGSPEPLPILSLNGGGPELAGDWGGAGDAPLSPDPLLSSPPGSPKAALHSPVSEGAPVIPPSSGLPLPTPDARVGASTCGPPDHLLPPLGTPLPPDWVTLEGDFVLMLAISPSHLGADLVAAPHARFDDGLVHLCWVRSGISRAALLRLFLAMERGSHFSLGCPQLGYAAARAFRLEPLTPRGVLTVDGEQVEYGPLQAQMHPGIGTLLTGPPGCPGREP |  |
| binds | hSPHK2-HA L254A (enzyme, UniProt Q9NRA0 1-654) MNGHLEAEEQQDQRPDQELTGSWGHGPRSTLVRAKAMAPPPPPLAASTPLLHGEFGSYPARGPRFALTLTSQALHIQRLRPKPEARPRGGLVPLAEVSGCCTLRSRSPSDSAAYFCIYTYPRGRRGARRRATRTFRADGAATYEENRAEAQRWATALTCLLRGLPLPGDGEITPDLLPRPPRLLLLVNPFGGRGLAWQWCKNHVLPMISEAGLSFNLIQTERQNHARELVQGLSLSEWDGIVTVSGDGLLHEVANGLLDRPDWEEAVKMPVGILPCGSGNALAGAVNQHGGFEPALGLDLLLNCSLLLCRGGGHPLDLLSVTLASGSRCFSFLSVAWGFVSDVDIQSERFRALGSARFTLGTVLGLATLHTYRGRLSYLPATVEPASPTPAHSLPRAKSELTLTPDPAPPMAHSPLHRSVSDLPLPLPQPALASPGSPEPLPILSLNGGGPELAGDWGGAGDAPLSPDPLLSSPPGSPKAALHSPVSEGAPVIPPSSGLPLPTPDARVGASTCGPPDHLLPPLGTPLPPDWVTLEGDFVLMLAISPSHLGADLVAAPHARFDDGLVHLCWVRSGISRAALLRLFLAMERGSHFSLGCPQLGYAAARAFRLEPLTPRGVLTVDGEQVEYGPLQAQMHPGIGTLLTGPPGCPGREP |  |
| binds | hSPHK2-HA L254V (enzyme, UniProt Q9NRA0 1-654) MNGHLEAEEQQDQRPDQELTGSWGHGPRSTLVRAKAMAPPPPPLAASTPLLHGEFGSYPARGPRFALTLTSQALHIQRLRPKPEARPRGGLVPLAEVSGCCTLRSRSPSDSAAYFCIYTYPRGRRGARRRATRTFRADGAATYEENRAEAQRWATALTCLLRGLPLPGDGEITPDLLPRPPRLLLLVNPFGGRGLAWQWCKNHVLPMISEAGLSFNLIQTERQNHARELVQGLSLSEWDGIVTVSGDGLLHEVVNGLLDRPDWEEAVKMPVGILPCGSGNALAGAVNQHGGFEPALGLDLLLNCSLLLCRGGGHPLDLLSVTLASGSRCFSFLSVAWGFVSDVDIQSERFRALGSARFTLGTVLGLATLHTYRGRLSYLPATVEPASPTPAHSLPRAKSELTLTPDPAPPMAHSPLHRSVSDLPLPLPQPALASPGSPEPLPILSLNGGGPELAGDWGGAGDAPLSPDPLLSSPPGSPKAALHSPVSEGAPVIPPSSGLPLPTPDARVGASTCGPPDHLLPPLGTPLPPDWVTLEGDFVLMLAISPSHLGADLVAAPHARFDDGLVHLCWVRSGISRAALLRLFLAMERGSHFSLGCPQLGYAAARAFRLEPLTPRGVLTVDGEQVEYGPLQAQMHPGIGTLLTGPPGCPGREP |  |

Reference: publication PMC11516111
